Values quoted from earlier work as cited in US11752111B2, “Use of cannabidivarin in the treatment of autism spectrum disorder, associated disorders and schizophrenia” (GW Research Limited, priority 2016, dated 2023).
At least one compound was matched to its structure with a doubt left.

System: PCP-treated rats
Conditions: background statement; cited from earlier work

## CN1CCN(C2=Nc3cc(Cl)ccc3Nc3ccccc32)CC1 [clozapine]
  PCP-induced deficit in the novel object recognition (NOR) test: can attenuate the deficit
